Results are given in words; binding and its absence hold for the method and conditions named. Binding seen in cells or lysates may run through a third protein. These calls come from enrichment with a bait or labelling near it, and not all partners need be listed. Tags and fused reporters may be left off the sequences shown.
T1: EGFP-C9ORF72 fusion protein (human (endogenous in hiPSC-MG)) (UniProt Q96LT7)
T1 sequence: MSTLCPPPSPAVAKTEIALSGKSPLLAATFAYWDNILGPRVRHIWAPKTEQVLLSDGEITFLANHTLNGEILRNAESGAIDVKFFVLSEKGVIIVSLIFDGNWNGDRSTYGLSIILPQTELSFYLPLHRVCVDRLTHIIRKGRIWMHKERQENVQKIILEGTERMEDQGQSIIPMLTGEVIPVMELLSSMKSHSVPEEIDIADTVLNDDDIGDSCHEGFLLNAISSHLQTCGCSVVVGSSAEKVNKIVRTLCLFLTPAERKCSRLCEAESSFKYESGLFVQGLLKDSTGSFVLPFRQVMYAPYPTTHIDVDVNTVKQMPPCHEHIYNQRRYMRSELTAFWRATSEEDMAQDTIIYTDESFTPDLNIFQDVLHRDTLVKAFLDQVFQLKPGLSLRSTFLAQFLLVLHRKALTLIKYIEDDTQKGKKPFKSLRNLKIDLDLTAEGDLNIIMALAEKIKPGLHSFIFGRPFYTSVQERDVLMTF

Amino acid sequences for entries named in this document (tags omitted). A change or cut given only in a name is not applied to a line headed by its entry.
UniProt P14780: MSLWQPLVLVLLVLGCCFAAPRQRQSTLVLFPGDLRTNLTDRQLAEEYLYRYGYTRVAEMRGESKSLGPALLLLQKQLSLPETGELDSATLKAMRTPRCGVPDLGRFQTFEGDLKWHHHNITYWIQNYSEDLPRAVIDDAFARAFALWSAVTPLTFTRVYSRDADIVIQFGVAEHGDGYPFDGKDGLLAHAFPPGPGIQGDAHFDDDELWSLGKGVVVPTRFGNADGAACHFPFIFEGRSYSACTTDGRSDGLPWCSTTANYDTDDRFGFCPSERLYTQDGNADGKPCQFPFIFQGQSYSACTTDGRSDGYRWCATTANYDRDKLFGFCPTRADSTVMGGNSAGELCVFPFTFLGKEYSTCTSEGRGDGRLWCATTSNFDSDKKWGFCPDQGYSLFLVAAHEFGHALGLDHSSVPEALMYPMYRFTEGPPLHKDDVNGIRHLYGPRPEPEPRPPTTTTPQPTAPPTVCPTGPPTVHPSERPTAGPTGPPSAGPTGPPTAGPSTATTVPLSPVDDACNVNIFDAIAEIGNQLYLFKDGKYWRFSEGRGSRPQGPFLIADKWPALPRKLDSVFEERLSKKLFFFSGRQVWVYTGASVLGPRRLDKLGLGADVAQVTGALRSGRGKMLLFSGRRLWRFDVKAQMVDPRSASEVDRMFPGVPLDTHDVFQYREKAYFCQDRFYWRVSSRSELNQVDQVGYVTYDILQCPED
UniProt P61006: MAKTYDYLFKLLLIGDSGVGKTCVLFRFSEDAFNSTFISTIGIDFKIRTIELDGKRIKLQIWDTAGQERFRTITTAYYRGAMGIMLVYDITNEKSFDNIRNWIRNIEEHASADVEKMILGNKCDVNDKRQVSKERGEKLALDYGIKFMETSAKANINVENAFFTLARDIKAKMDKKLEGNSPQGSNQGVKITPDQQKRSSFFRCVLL
UniProt P61026: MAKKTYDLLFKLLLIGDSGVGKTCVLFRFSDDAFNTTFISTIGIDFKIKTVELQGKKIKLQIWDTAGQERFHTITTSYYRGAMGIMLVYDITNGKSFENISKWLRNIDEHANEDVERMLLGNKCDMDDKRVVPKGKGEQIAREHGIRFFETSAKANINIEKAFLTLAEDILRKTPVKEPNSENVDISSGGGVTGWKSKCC
UniProt Q9UL25: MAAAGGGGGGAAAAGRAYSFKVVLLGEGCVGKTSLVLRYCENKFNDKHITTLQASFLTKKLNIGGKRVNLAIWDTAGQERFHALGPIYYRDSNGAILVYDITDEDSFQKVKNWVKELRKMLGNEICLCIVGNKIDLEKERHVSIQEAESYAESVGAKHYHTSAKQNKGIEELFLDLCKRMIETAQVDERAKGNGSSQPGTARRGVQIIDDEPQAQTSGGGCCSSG
UniProt P61960: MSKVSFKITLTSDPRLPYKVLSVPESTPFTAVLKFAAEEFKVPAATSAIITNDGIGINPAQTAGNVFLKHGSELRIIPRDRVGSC

B1: RAB13 (protein, UniProt P51153 1-203)
chain: MAKAYDHLFKLLLIGDSGVGKTCLIIRFAEDNFNNTYISTIGIDFKIRTVDIEGKKIKLQVWDTAGQERFKTITTAYYRGAMGIILVYDITDEKSFENIQNWMKSIKENASAGVERLLLGNKCDMEAKRKVQKEQADKLAREHGIRFFETSAKSSMNVDEAFSSLARDILLKSGGRRSGNGNKPPSTDLKTCDKKNTNKCSLG
B2: RAB 34 (protein, UniProt Q9BZG1 1-259)
chain: MNILAPVRRDRVLAELPQCLRKEAALHGHKDFHPRVTCACQEHRTGTVGFKISKVIVVGDLSVGKTCLINRFCKDTFDKNYKATIGVDFEMERFEVLGIPFSLQLWDTAGQERFKCIASTYYRGAQAIIIVFNLNDVASLEHTKQWLADALKENDPSSVLLFLVGSKKDLSTPAQYALMEKDALQVAQEMKAEYWAVSSLTGENVREFFFRVAALTFEANVLAELEKSGARRIGDVVRINSDDSNLYLTASKKKPTCCP

target: T1, EGFP-C9ORF72 fusion protein (human (endogenous in hiPSC-MG)); experiment: affinity purification with mass spectrometry; GFP-Trap beads (Chromotek) on 350 ug lysate of EGFP-C9ORF72 hiPSC-MG against ctrl-MG, 4°C, 90 min; lysis buffer 20 mM Hepes pH 7.5, 150 mM NaCl, 5 mM MgCl2, 10% glycerol, 0.5% NP-40, 100 nM GTPgS; on-bead tryptic digestion, 8-plex TMT, LC-MS/MS; >2.0-fold enrichment, 1% FDR

| binding | Molecule |
| --- | --- |
| binds | MMP9 (from UniProt P14780) |
| binds | RAB5 (human (endogenous in hiPSC-MG)) |
| binds | RAB8A (from UniProt P61006 1-207) |
| binds | RAB10 (from UniProt P61026 1-200) |
| binds | RAB21 (from UniProt Q9UL25 1-225) |
| binds | RAB39Ab (human (endogenous in hiPSC-MG)) |
| binds | UFM 1 (ubiquitin fold modifier 1) (from UniProt P61960 1-85) |
| binds | B1 |
| binds | B2 |

Source: article PMC10121169
